Experimental data: PMC6821171
These are yes or no findings as the source states them, for the method shown. In cells and extracts the contact can be indirect. Some results given as binding are weak or reduced against the parent protein; the word gives no strength.

By UniProt entry, the sequences of proteins in these tests, tags left out.
UniProt P25440: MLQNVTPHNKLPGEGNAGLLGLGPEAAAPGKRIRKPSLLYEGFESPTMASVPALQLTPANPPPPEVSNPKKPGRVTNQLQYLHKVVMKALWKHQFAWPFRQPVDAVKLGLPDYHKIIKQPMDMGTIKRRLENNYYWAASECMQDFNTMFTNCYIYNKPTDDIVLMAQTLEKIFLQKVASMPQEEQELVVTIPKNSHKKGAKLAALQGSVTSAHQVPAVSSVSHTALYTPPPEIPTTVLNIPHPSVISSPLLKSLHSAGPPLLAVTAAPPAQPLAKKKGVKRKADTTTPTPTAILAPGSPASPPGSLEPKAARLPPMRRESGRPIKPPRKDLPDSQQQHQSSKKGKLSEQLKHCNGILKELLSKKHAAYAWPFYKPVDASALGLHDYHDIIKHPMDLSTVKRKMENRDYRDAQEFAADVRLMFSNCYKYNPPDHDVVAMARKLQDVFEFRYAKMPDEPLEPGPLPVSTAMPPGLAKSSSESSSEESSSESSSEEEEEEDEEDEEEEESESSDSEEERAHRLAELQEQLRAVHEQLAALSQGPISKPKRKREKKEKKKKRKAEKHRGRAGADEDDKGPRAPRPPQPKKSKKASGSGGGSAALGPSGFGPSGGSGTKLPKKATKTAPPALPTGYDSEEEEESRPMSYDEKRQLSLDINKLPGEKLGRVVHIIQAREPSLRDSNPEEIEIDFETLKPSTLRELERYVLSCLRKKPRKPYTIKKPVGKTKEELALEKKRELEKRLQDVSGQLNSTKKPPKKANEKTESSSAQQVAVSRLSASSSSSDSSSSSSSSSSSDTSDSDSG

B1: Treacle protein (protein, UniProt Q13428 1-1488)
chain: MAEARKRRELLPLIYHHLLRAGYVRAAREVKEQSGQKCFLAQPVTLLDIYTHWQQTSELGRKRKAEEDAALQAKKTRVSDPISTSESSEEEEEAEAETAKATPRLASTNSSVLGADLPSSMKEKAKAETEKAGKTGNSMPHPATGKTVANLLSGKSPRKSAEPSANTTLVSETEEEGSVPAFGAAAKPGMVSAGQADSSSEDTSSSSDETDVEGKPSVKPAQVKASSVSTKESPARKAAPAPGKVGDVTPQVKGGALPPAKRAKKPEEESESSEEGSESEEEAPAGTRSQVKASEKILQVRAASAPAKGTPGKGATPAPPGKAGAVASQTKAGKPEEDSESSSEESSDSEEETPAAKALLQAKASGKTSQVGAASAPAKESPRKGAAPAPPGKTGPAVAKAQAGKREEDSQSSSEESDSEEEAPAQAKPSGKAPQVRAASAPAKESPRKGAAPAPPRKTGPAAAQVQVGKQEEDSRSSSEESDSDREALAAMNAAQVKPLGKSPQVKPASTMGMGPLGKGAGPVPPGKVGPATPSAQVGKWEEDSESSSEESSDSSDGEVPTAVAPAQEKSLGNILQAKPTSSPAKGPPQKAGPVAVQVKAEKPMDNSESSEESSDSADSEEAPAAMTAAQAKPALKIPQTKACPKKTNTTASAKVAPVRVGTQAPRKAGTATSPAGSSPAVAGGTQRPAEDSSSSEESDSEEEKTGLAVTVGQAKSVGKGLQVKAASVPVKGSLGQGTAPVLPGKTGPTVTQVKAEKQEDSESSEEESDSEEAAASPAQVKTSVKKTQAKANPAAARAPSAKGTISAPGKVVTAAAQAKQRSPSKVKPPVRNPQNSTVLARGPASVPSVGKAVATAAQAQTGPEEDSGSSEEESDSEEEAETLAQVKPSGKTHQIRAALAPAKESPRKGAAPTPPGKTGPSAAQAGKQDDSGSSSEESDSDGEAPAAVTSAQVIKPPLIFVDPNRSPAGPAATPAQAQAASTPRKARASESTARSSSSESEDEDVIPATQCLTPGIRTNVVTMPTAHPRIAPKASMAGASSSKESSRISDGKKQEGPATQVSKKNPASLPLTQAALKVLAQKASEAQPPVARTQPSSGVDSAVGTLPATSPQSTSVQAKGTNKLRKPKLPEVQQATKAPESSDDSEDSSDSSSGSEEDGEGPQGAKSAHTLGPTPSRTETLVEETAAESSEDDVVAPSQSLLSGYMTPGLTPANSQASKATPKLDSSPSVSSTLAAKDDPDGKQEAKPQQAAGMLSPKTGGKEAASGTTPQKSRKPKKGAGNPQASTLALQSNITQCLLGQPWPLNEAQVQASVVKVLTELLEQERKKVVDTTKESSRKGWESRKRKLSGDQPAARTPRSKKKKKLGAGEGGEASVSPEKTSTTSKGKAKRDKASGDVKEKKGKGSLGSQGAKDEPEEELQKGMGTVEGGDQSNPKSKKEKKKSDKRKKDKEKKEKKKKAKKASTKDSESPSQKKKKKKKKTAEQTV
B2: JADE3 (protein, UniProt Q92613 1-823)
chain: MKRHRPVSSSDSSDESPSTSFTSGSMYRIKSKIPNEHKKPAEVFRKDLISAMKLPDSHHINPDSYYLFADTWKEEWEKGVQVPASPDTVPQPSLRIIAEKVKDVLFIRPRKYIHCSSPDTTEPGYINIMELAASVCRYDLDDMDIFWLQELNEDLAEMGCGPVDENLMEKTVEVLERHCHENMNHAIETEEGLGIEYDEDVICDVCRSPDSEEGNDMVFCDKCNVCVHQACYGILKVPEGSWLCRSCVLGIYPQCVLCPKKGGALKTTKTGTKWAHVSCALWIPEVSIACPERMEPITKISHIPPSRWALVCNLCKLKTGACIQCSIKSCITAFHVTCAFEHGLEMKTILDEGDEVKFKSYCLKHSQNRQKLGEAEYPHHRAKEQSQAKSEKTSLRAQKLRELEEEFYSLVRVEDVAAELGMPTLAVDFIYNYWKLKRKSNFNKPLFPPKEDEENGLVQPKEESIHTRMRMFMHLRQDLERVRNLCYMISRREKLKLSHNKIQEQIFGLQVQLLNQEIDAGLPLTNALENSLFYPPPRITLKLKMPKSTPEDHRNSSTETDQQPHSPDSSSSVHSIRNMQVPQESLEMRTKSYPRYPLESKNNRLLASLSHSRSEAKESSPAWRTPSSECYHGQSLGKPLVLQAALHGQSSIGNGKSQPNSKFAKSNGLEGSWSGNVTQKDSSSEMFCDQEPVFSPHLVSQGSFRKSTVEHFSRSFKETTNRWVKNTEDLQCYVKPTKNMSPKEQFWGRQVLRRSAGRAPYQENDGYCPDLELSDSEAESDGNKEKVRVRKDSSDRENPPHDSRRDCHGKSKTHPLSHSSMQR

Experiments:
[1] = biological target: HBF (His6-biotinylation sequence-FLAG tag)-LYAR (human) (UniProt Q9NX58); test: pull-down; HBF-LYAR as bait; two-step pulldown by His6 and FLAG tags from nuclear extract of Dox-treated HBF-LYAR-TO cells, immunoblotting of associated proteins; also after siRNA knockdown (72 h) of treacle, UBF, SPT5, BRD2 or BRD4; T-REx 293 cells as control
HBF-BRD2 (human) = HBF-BRD2 (human) (UniProt P25440); test: co-IP; HBF-BRD2 or FLAG-BRD4 as bait; nuclear extracts of HBF-BRD2-TO or FLAG-BRD4-TO cells treated with Dox for 24 h, two-step immunoprecipitation with anti-His6 and anti-FLAG; immunoblotting; T-REx 293 cells as control

Binder | binding [1] | binding (HBF-BRD2 (human))
B1 | binds | –
B2 | – | binds
